Reference: article PMC7168109
The exact form of at least one protein or probe is not confirmed. At least one result comes from cells or an extract, where the contact may be indirect. At least one verdict rests on a figure or table, not on a statement of the authors.

Target: T1, PTK7 (tyrosine protein kinase 7, CCK4) on CCRF-CEM or Jurkat cells (UniProt Q13308)
T1 sequence: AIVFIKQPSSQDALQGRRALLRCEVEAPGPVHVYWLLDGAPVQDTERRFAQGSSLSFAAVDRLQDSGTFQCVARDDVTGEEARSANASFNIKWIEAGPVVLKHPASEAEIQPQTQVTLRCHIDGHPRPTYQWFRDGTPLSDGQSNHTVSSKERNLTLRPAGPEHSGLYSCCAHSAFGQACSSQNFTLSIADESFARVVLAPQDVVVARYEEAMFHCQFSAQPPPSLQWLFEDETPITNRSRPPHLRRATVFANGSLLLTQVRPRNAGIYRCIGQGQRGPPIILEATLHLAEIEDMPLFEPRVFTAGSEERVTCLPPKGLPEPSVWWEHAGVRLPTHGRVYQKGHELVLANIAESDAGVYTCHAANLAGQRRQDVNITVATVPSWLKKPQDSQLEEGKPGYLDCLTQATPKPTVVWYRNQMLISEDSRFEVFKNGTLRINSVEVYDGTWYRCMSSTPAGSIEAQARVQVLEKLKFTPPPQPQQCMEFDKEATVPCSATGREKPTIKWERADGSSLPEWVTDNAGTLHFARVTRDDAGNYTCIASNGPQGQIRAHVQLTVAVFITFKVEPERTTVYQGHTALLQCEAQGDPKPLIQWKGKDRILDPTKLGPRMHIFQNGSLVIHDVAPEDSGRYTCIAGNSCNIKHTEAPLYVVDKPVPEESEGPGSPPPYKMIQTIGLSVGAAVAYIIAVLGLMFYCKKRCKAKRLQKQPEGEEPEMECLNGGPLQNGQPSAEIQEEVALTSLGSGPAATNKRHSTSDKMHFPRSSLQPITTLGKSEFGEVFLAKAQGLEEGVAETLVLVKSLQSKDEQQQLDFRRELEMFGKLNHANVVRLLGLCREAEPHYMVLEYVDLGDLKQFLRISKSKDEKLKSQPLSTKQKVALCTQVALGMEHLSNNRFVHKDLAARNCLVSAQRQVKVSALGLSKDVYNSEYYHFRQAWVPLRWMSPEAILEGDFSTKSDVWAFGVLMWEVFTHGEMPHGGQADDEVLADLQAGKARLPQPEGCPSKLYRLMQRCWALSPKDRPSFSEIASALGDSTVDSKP
Experiment: flow cytometry
Settings: 200 nM aptamer, Flow cytometry on whole cells: 200 nM aptamer, 4 °C, 30 min in the dark, cells washed with PBS before incubation, three washes after, binding buffer and pH not stated, protein on the cell surface, label: 5'-FAM, single-stranded DNA

“TTTTTTTTTTATCTAACTGCTGCGCCGCCGGGAAAATACTGTACGGTTAGA [Sgc8-FAM]”: binds (CCRF-CEM cells (PTK7-positive), stronger shift than Jurkat); binds (Jurkat cells (PTK7-positive), strong binding, smaller shift than CCRF-CEM).
